# Experimental data from the supplement of paper PMC8728848.
# Some of the results follow.
# B1: FimA (Actinomyces oris) (protein)
# chain: MHHHHHHSSGVDLGTENLYFQSNAETPNYGNIKTDATGSLVIHKHLTGGGKDIGTPTGTAQNADDKGPAVEGVVFTAYPITDINLKDPAGWDTISNLSRTGVPDSACANPAAPTLGAHQFGTPKVSPATTKEGLATITEMPVQAYLVCETTTPGDIVQKAKPFVVTIPHPNTAAGADGQWIYDVNVYPKNEAIDVDKTIQAQKLNGYGVGSLIKFPVESTAPTLDAKSFYKYFQLKDTLDERLSEVTATDVSLEGTPLQPTDYKVETKQQTVTVTFTAEGLKKIKAAPGKKVSAVFQGKVTKAGNGAITNRAQVISDTLYAEQPPTPETPPTDPENPPTSDEVISRWGDLSIKKVDTHQQGQTKAGLQGAQFQLYKAKNAYANTCSNEKEGAPIAINGQTTLTTDAQGAIDIKGLFISDSIDGADRDNQVNAMERCYVLVETKAPAGYVLPAGNGAATPVKVKAGEETTDNVTVENTKQSVPGLPLTG
# Legend:
# Assay in all cases: glycan array binding signal (z-score within array); higher = stronger binding
# Conditions in all cases: glycan notation: IUPAC condensed, linker removed
# [1] = target: Gal(b1-4)GlcNAc(b1-3)Gal(b1-4)GlcNAc(b1-6)[Gal(b1-3)]GalNAc
# How it was run: (§1)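 Arrays were curated from the Consortium for Functional Glycomics database, 3228 in total, and kept only where the protein sequence was available. Binding is expressed as a within-array Z-score. This score was averaged across arrays of the same protein sequence at different concentrations or buffers and across linkers, and negative values can be read as non-binding.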
# [2] = target: Gal(b1-4)GlcNAc(b1-3)Gal(b1-4)[Fuc(a1-3)]GlcNAc(b1-3)Gal(b1-4)[Fuc(a1-3)]GlcNAc
# How it was run: as §1
# [3] = target: Gal(b1-4)GlcNAc(b1-3)GalNAc
# How it was run: as §1
# [4] = target: Gal(b1-4)GlcNAc(b1-3)[Fuc(a1-3)GlcNAc(b1-6)]Gal(b1-4)Glc
# How it was run: as §1
# [5] = target: Gal(b1-4)GlcNAc(b1-3)[Gal(b1-4)GlcNAc(b1-6)]Gal(b1-4)GlcNAc
# How it was run: as §1
# [6] = target: Gal(b1-4)GlcNAc(b1-3)[GlcNAc(b1-6)]Gal(b1-4)GlcNAc
# How it was run: as §1
# [7] = target: Gal(b1-4)GlcNAc(b1-6)Gal(b1-4)GlcNAc
# How it was run: as §1
# [8] = target: Gal(b1-4)GlcNAc(b1-6)GalNAc
# How it was run: as §1
# [9] = target: Gal(b1-4)GlcNAc(b1-6)[Gal(b1-3)]GalNAc
# How it was run: as §1
# [10] = target: Gal(b1-4)GlcNAc(b1-6)[Gal(b1-4)GlcNAc(b1-3)]GalNAc
# How it was run: as §1
# Gal(b1-4)GlcNAc6P = target: Gal(b1-4)GlcNAc6P
# How it was run: as §1
# Gal(b1-6)Gal = target: Gal(b1-6)Gal
# How it was run: as §1
# Gal3S(b1-3)GalNAc = target: Gal3S(b1-3)GalNAc
# How it was run: as §1
# Gal3S(b1-3)GlcNAc = target: Gal3S(b1-3)GlcNAc
# How it was run: as §1
# [11] = target: Gal3S(b1-3)[Fuc(a1-4)]GlcNAc
# How it was run: as §1
# Gal3S(b1-4)Glc = target: Gal3S(b1-4)Glc
# How it was run: as §1
# Gal3S(b1-4)Glc6S = target: Gal3S(b1-4)Glc6S
# How it was run: as §1
# Gal3S(b1-4)GlcNAc = target: Gal3S(b1-4)GlcNAc
# How it was run: as §1
# [12] = target: Gal3S(b1-4)[Fuc(a1-3)]Glc6S
# How it was run: as §1
# [13] = target: Gal3S(b1-4)[Fuc(a1-3)]GlcNAc
# How it was run: as §1
# [14] = target: Gal3S(b1-4)[Fuc(a1-3)]GlcNAc6S
# How it was run: as §1
# Gal3S4S(b1-4)GlcNAc = target: Gal3S4S(b1-4)GlcNAc
# How it was run: as §1
# Gal3S6S(b1-4)GlcNAc = target: Gal3S6S(b1-4)GlcNAc
# How it was run: as §1
# Gal3S6S(b1-4)GlcNAc6S = target: Gal3S6S(b1-4)GlcNAc6S
# How it was run: as §1
# Gal4S(b1-4)GlcNAc = target: Gal4S(b1-4)GlcNAc
# How it was run: as §1
# Gal4S6S(b1-4)GlcNAc = target: Gal4S6S(b1-4)GlcNAc
# How it was run: as §1
# Gal6P(b1-4)GlcNAc = target: Gal6P(b1-4)GlcNAc
# How it was run: as §1
# Gal6S(b1-3)GlcNAc = target: Gal6S(b1-3)GlcNAc
# How it was run: as §1
# Gal6S(b1-3)GlcNAc6S = target: Gal6S(b1-3)GlcNAc6S
# How it was run: as §1
# Gal6S(b1-4)Glc = target: Gal6S(b1-4)Glc
# How it was run: as §1
# Gal6S(b1-4)Glc6S = target: Gal6S(b1-4)Glc6S
# How it was run: as §1
# Gal6S(b1-4)GlcNAc = target: Gal6S(b1-4)GlcNAc
# How it was run: as §1
# Gal6S(b1-4)GlcNAc6S = target: Gal6S(b1-4)GlcNAc6S
# How it was run: as §1
# GalNAc(a1-3)Gal = target: GalNAc(a1-3)Gal
# How it was run: as §1
# GalNAc(a1-3)GalNAc = target: GalNAc(a1-3)GalNAc
# How it was run: as §1
# [15] = target: GalNAc(a1-3)GalNAc(b1-3)Gal(a1-4)Gal(b1-4)Glc
# How it was run: as §1
# [16] = target: GalNAc(a1-3)GalNAc(b1-3)Gal(a1-4)Gal(b1-4)GlcNAc
# How it was run: as §1
binder,measurement,setting,value
B1,glycan array binding signal (z-score),[1],0.786
same,glycan array binding signal (z-score),[2],-0.613
same,glycan array binding signal (z-score),[3],-0.152
same,glycan array binding signal (z-score),[4],-0.158
same,glycan array binding signal (z-score),[5],0.707
same,glycan array binding signal (z-score),[6],-0.534
same,glycan array binding signal (z-score),[7],-0.553
same,glycan array binding signal (z-score),[8],0.299
same,glycan array binding signal (z-score),[9],-0.664
same,glycan array binding signal (z-score),[10],-0.188
same,glycan array binding signal (z-score),Gal(b1-4)GlcNAc6P,-0.808
same,glycan array binding signal (z-score),Gal(b1-6)Gal,-0.395
same,glycan array binding signal (z-score),Gal3S(b1-3)GalNAc,0.867
same,glycan array binding signal (z-score),Gal3S(b1-3)GlcNAc,1.03
same,glycan array binding signal (z-score),[11],0.625
same,glycan array binding signal (z-score),Gal3S(b1-4)Glc,0.47
same,glycan array binding signal (z-score),Gal3S(b1-4)Glc6S,-0.312
same,glycan array binding signal (z-score),Gal3S(b1-4)GlcNAc,-0.013
same,glycan array binding signal (z-score),[12],3.23
same,glycan array binding signal (z-score),[13],0.49
same,glycan array binding signal (z-score),[14],0.807
same,glycan array binding signal (z-score),Gal3S4S(b1-4)GlcNAc,-0.582
same,glycan array binding signal (z-score),Gal3S6S(b1-4)GlcNAc,0.229
same,glycan array binding signal (z-score),Gal3S6S(b1-4)GlcNAc6S,0.183
same,glycan array binding signal (z-score),Gal4S(b1-4)GlcNAc,0.095
same,glycan array binding signal (z-score),Gal4S6S(b1-4)GlcNAc,-0.001
same,glycan array binding signal (z-score),Gal6P(b1-4)GlcNAc,-0.719
same,glycan array binding signal (z-score),Gal6S(b1-3)GlcNAc,-0.701
same,glycan array binding signal (z-score),Gal6S(b1-3)GlcNAc6S,-0.671
same,glycan array binding signal (z-score),Gal6S(b1-4)Glc,0.187
same,glycan array binding signal (z-score),Gal6S(b1-4)Glc6S,0.624
same,glycan array binding signal (z-score),Gal6S(b1-4)GlcNAc,-0.234
same,glycan array binding signal (z-score),Gal6S(b1-4)GlcNAc6S,4.75
same,glycan array binding signal (z-score),GalNAc(a1-3)Gal,0.616
same,glycan array binding signal (z-score),GalNAc(a1-3)GalNAc,-0.618
same,glycan array binding signal (z-score),[15],-0.283
same,glycan array binding signal (z-score),[16],-0.436

# Quoted at random: two records from the list.
binder,measurement,setting,value
B1,glycan array binding signal (z-score),[8],0.299
same,glycan array binding signal (z-score),[16],-0.436
